From US4629784 (dated 1986)

Assay: general procedure: solution-phase peptide synthesis; EDC/HOBt
Details: late stage modification step

Substance Try-D-Ala-Gly-(2R).gradient.^E Phe-Leu has a step yield of 70.4%.
